Measured values as given in PubChem BioAssay AID720724 (Broad Institute, 2013).
All entries are inconclusive by the source's own rule. Clear calls are listed elsewhere.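 How the source made its calls: active means signal falls with a fitted half-maximal dose at most twice the top dose, in every run; inconclusive means steady partial drop, poor fit, or runs disagree; inactive means flat, rising or too weak in every run.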

Experiment: EF1alpha-driven Renilla reporter with control 3'UTR suppression – Clone20-Shn3RL cells, dual-Glo, cherry-pick, set 2, counter-screen for Shn3 3'UTR targeting project, dose response (AID 720724)
Conditions: renilla luciferase luminescence, 24 h; at 35 µM (top of the series)

SMILES	activity change, negative = inhibition
COCOCCn1cc(CN2CCS(=O)(=O)N(Cc3ccc(-c4ccc(Cl)c(Cl)c4)cc3)C(C(C)C)C2=O)nn1 (configuration not stated)	inconclusive: -40%
Cc1ccc([C@@H]2CC(=O)[C@@H]3CN(S(=O)(=O)c4ccccc4C)[C@H](c4ccc(Cl)cc4)C[C@@H]3N2S(=O)(=O)c2ccc(C)cc2)cc1	inconclusive: -38.3%
